# In patent US9388210B2, “Neuroactive 17(20)-Z-vinylcyano-substituted steroids, prodrugs thereof, and methods of treatment using same” (priority 2011, dated 2016):
# Legend:
# [1] = tested on: picrotoxin binding site on GABAA receptors; conditions: ± SEM
# [2] = tested on: tadpole; assay: Tadpole loss of righting reflex (LRR) and loss of swimming reflex (LSR); type: in vivo; conditions: for Tadpole LRR nHill: loss of righting reflex; for Tadpole LSR nHill: loss of swimming reflex
Compound,"nHill, [35S]-TBPS binding [1]",Tadpole LRR nHill [2],Tadpole LSR nHill [2]
"CO[C@H]1C[C@]2(C)/C(=C\C#N)CC[C@H]2[C@@H]2CC[C@H]3C[C@H](O)CC[C@]3(C)[C@H]21 [Compound 17a, [3α,5α,11β,17(20)Z]-3-Hydroxy-11-methoxypregn-17(20)-ene-21-nitrile]",1.51 ± 0.21,−2.26 ± 0.15,−36.3 ± 0.1
"CO[C@H]1C[C@@]2(C)[C@@H](CC[C@@H]3[C@@H]2CC[C@]2(C)/C(=C/C#N)CC[C@@H]32)C[C@@H]1O [Compound 16b, [2β,3α,5α,17(20)E]-3-Hydroxy-2-methoxyandrost-17(20)-ene-21-nitrile]",0.86 ± 0.10,−1.82 ± 0.49,−20.8 ± 0.5
"C/C(C#N)=C1\CC[C@H]2[C@@H]3CC[C@H]4C[C@H](O)CC[C@]4(C)[C@H]3C(=O)C[C@]12C [Compound 6c, [3α,5α,17(20)Z]-3-Hydroxy-11-oxopregn-17(20)-ene-20-carbonitrile]",,−2.47 ± 0.64,−33 ± 0
"CO[C@H]1C[C@]2(C)/C(=C/C#N)CC[C@H]2[C@@H]2CC[C@H]3C[C@H](O)CC[C@]3(C)[C@H]21 [Compound 17b, [3α,5α,11β,17(20)E]-3-Hydroxy-11-methoxypregn-17(20)-en-21-nitrile]",1.27 ± 0.30,−6.23 ± 14.2,−15.7 ± 0.9
"C[C@]12CC[C@@H](O)C[C@@H]1CC[C@@H]1[C@@H]2CC[C@]2(C)/C(=C/C#N)CC[C@@H]12 [Compound 14b, [3α,5α,17(20)E]-3-Hydroxypregn-17(20)-ene-21-nitrile]",0.97 ± 0.06,−4.29 ± 6.62,
"C[C@]12CC[C@@H](O)C[C@@H]1CC[C@@H]1[C@@H]2CC[C@]2(C)/C(=C\C#N)CC[C@@H]12 [Compound 14a, [3α,5α,17(20)Z]-3-Hydroxypregn-17(20)-ene-21-nitrile]",1.09 ± 0.14,,
"CO[C@H]1C[C@@]2(C)[C@@H](CC[C@@H]3[C@@H]2CC[C@]2(C)/C(=C\C#N)CC[C@@H]32)C[C@@H]1O [Compound 16a, [2β,3α,5α,17(20)Z]-3-Hydroxy-2-methoxyandrost-17(20)-ene-21-nitrile]",1.09 ± 0.05,−1.57 ± 0.43,−18.6 ± 0.4
"C[C@]12CC[C@@H](O)C[C@@H]1CC[C@@H]1[C@@H]2C(=O)C[C@]2(C)/C(=C\C#N)CC[C@@H]12 [Compound 6a, [3α,5α,17(20)Z]-3-Hydroxy-11-oxopregn-17(20)-ene-2′-nitrile]",,−2.84 ± 0.77,−33 ± 0
"C[C@]12CC[C@@H](O)C[C@H]1CC[C@@H]1[C@@H]2CC[C@]2(C)/C(=C/C#N)CC[C@@H]12 [Compound 15b, [(3α,5β,17(20)E]-3-Hydroxypregn-17(20)-ene-21-nitrile]",1.10 ± 0.34,−4.28 ± 5.67,−33.2 ± 0.15
"C[C@]12CC[C@@H](O)C[C@H]1CC[C@@H]1[C@@H]2CC[C@]2(C)/C(=C\C#N)CC[C@@H]12 [Compound 15a, [3α,5β,17(20)Z]-3-Hydroxypregn-17(20)-ene-21-nitrile]",0.94 ± 0.14,−2.21 ± 0.34,−18.5 ± 0
"[3α,5α,17(20)E]-3-(Acetyloxy)-11-oxopregn-17(20)-ene-20-carbonitrile [Compound 6d]",,−2.42 ± 0.24,
"C[C@]12CC[C@@H](O)C[C@@H]1CC[C@@H]1[C@@H]2C(=O)C[C@]2(C)/C(=C/C#N)CC[C@@H]12 [Compound 6b, [3α,5α,17(20)E]-3-Hydroxy-11-oxopregn-17(20)-ene-2′-nitrile]",,−1.70 ± 1.15,−36 ± 0
